Experimental data: article PMC11490886
These are yes or no findings as the source states them, for the method shown. In cells and extracts the contact can be indirect. Some binding calls cover weakened binding; strength is not graded here.

Chains of the proteins cited; added tags and fusions are not shown.
UniProt Q96CV9: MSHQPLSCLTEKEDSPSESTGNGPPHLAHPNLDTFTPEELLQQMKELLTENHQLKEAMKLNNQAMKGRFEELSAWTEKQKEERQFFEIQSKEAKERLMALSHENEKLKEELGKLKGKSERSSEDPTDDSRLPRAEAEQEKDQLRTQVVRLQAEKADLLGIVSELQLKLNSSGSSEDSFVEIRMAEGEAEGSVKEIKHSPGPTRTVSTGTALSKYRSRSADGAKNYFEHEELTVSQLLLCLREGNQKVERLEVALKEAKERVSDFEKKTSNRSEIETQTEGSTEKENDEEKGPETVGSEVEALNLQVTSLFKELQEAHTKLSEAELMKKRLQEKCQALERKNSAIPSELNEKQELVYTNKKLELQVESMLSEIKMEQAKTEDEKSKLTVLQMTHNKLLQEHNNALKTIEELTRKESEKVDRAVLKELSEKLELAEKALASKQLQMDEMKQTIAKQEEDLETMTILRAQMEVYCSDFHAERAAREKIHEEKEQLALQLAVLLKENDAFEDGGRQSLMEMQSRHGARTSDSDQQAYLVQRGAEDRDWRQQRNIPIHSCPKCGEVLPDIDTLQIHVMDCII
UniProt A7MCY6: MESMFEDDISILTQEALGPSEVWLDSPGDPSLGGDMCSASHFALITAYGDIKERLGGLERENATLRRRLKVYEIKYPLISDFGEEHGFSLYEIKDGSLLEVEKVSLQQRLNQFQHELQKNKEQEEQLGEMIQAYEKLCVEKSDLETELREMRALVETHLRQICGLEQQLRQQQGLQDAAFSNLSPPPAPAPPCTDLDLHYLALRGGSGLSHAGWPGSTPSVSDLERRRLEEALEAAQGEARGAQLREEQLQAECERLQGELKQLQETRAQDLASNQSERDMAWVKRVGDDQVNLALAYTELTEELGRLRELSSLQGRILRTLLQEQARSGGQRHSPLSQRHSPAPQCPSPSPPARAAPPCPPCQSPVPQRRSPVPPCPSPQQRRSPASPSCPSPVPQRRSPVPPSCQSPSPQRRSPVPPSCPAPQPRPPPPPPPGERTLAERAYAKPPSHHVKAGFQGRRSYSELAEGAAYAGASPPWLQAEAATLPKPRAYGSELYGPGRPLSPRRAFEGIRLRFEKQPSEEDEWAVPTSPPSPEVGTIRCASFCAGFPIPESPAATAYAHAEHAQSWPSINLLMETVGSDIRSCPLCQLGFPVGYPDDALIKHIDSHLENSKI

B1: TANK-binding kinase 1 (TBK1), endogenous (enzyme, UniProt Q9UHD2 1-729)
chain: MQSTSNHLWLLSDILGQGATANVFRGRHKKTGDLFAIKVFNNISFLRPVDVQMREFEVLKKLNHKNIVKLFAIEEETTTRHKVLIMEFCPCGSLYTVLEEPSNAYGLPESEFLIVLRDVVGGMNHLRENGIVHRDIKPGNIMRVIGEDGQSVYKLTDFGAARELEDDEQFVSLYGTEEYLHPDMYERAVLRKDHQKKYGATVDLWSIGVTFYHAATGSLPFRPFEGPRRNKEVMYKIITGKPSGAISGVQKAENGPIDWSGDMPVSCSLSRGLQVLLTPVLANILEADQEKCWGFDQFFAETSDILHRMVIHVFSLQQMTAHKIYIHSYNTATIFHELVYKQTKIISSNQELIYEGRRLVLEPGRLAQHFPKTTEENPIFVVSREPLNTIGLIYEKISLPKVHPRYDLDGDASMAKAITGVVCYACRIASTLLLYQELMRKGIRWLIELIKDDYNETVHKKTEVVITLDFCIRNIEKTVKVYEKLMKINLEAAELGEISDIHTKLLRLSSSQGTIETSLQDIDSRLSPGGSLADAWAHQEGTHPKDRNVEKLQVLLNCMTEIYYQFKKDKAERRLAYNEEQIHKFDKQKLYYHATKAMTHFTDECVKKYEAFLNKSEEWIRKMLHLRKQLLSLTNQCFDIEEEVSKYQEYTNELQETLPQKMFTASSGIKHTMTPIYPSSNTLVEMTLGMKKLKEEMEGVVKELAENNHILERFGSLTMDGGLRNVDCL

Biological target: 3FLAG-tagged OPTN (UniProt Q96CV9)
Experiment: co-IP; cells (Parkin-AAVS-HeLa, or OPTN-AZI2-TBKBP1 TKO HeLa with Parkin) stably expressing 3FLAG- and 3HA-tagged proteins, with or without valinomycin 30 min; cross-linked with 1 mM DSP in PBS, room temperature, 30 min; solubilised in 1% Triton X-100, 50 mM Tris-HCl pH 7.5, 150 mM NaCl; anti-FLAG (DDDDK) agarose, 4 °C, 1 h; immunoblot

Row | Molecule | binding
1 | 3HA-tagged TBKBP1 (from UniProt A7MCY6 1-615) | no binding
2 | B1 | binds
